We go through three molecules from US20230287046A1, “MOLECULES TARGETING PROTEINS” (AELIN THERAPEUTICS, priority 2020, published 2023).

Results are given in words; binding and its absence hold for the method and conditions named. Some entries that bind do so weakly or less than the wild type. For part of these data: Sequences can lack the tags named with a protein.

The target in assay [1] is mCherry-tagged KRAS G12V (overexpressed in HeLa cells) (human) (UniProt P01116). As to the kind of experiment: confocal co-localization in HeLa cells overexpressing mCherry-KRAS G12V.
The target is the same in assay [2]. Description: confocal co-localization in HeLa cells overexpressing mCherry-KRAS G12V (FIG. 8).
For assay [3], the target named is T1, ITK R29L, DYKDDDDK-tagged (produced by in vitro translation) (human) (UniProt Q08881).
T1 sequence: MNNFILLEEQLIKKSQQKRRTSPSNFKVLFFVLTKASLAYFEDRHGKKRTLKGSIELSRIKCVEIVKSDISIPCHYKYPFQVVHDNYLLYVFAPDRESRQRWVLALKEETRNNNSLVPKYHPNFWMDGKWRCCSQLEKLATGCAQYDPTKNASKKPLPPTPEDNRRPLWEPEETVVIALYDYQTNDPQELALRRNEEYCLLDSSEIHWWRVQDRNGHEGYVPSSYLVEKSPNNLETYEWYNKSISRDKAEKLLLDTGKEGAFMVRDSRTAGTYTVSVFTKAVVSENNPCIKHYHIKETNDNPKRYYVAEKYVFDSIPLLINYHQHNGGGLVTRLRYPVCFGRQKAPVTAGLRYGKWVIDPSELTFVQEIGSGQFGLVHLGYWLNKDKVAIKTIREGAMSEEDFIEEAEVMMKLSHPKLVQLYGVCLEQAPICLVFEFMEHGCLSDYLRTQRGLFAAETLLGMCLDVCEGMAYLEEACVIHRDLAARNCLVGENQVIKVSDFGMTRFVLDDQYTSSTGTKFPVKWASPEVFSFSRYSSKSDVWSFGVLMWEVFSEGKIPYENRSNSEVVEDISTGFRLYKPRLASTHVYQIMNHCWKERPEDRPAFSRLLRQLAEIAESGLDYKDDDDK
As to the kind of experiment: in vitro translation with 10 µM biotinylated pept-in, streptavidin pull-down, anti-DYKDDDDK Western blot. Background: In western blotting, separated proteins are transferred to a membrane and probed.

Assay [4] has as its target T1, ITK R29L, DYKDDDDK-tagged (produced by in vitro translation) (human). Description: in vitro translation assay (FIG. 14).
Assay [5] deals with T2, ITK R29C, DYKDDDDK-tagged (produced by in vitro translation) (human) (UniProt Q08881).
T2 sequence: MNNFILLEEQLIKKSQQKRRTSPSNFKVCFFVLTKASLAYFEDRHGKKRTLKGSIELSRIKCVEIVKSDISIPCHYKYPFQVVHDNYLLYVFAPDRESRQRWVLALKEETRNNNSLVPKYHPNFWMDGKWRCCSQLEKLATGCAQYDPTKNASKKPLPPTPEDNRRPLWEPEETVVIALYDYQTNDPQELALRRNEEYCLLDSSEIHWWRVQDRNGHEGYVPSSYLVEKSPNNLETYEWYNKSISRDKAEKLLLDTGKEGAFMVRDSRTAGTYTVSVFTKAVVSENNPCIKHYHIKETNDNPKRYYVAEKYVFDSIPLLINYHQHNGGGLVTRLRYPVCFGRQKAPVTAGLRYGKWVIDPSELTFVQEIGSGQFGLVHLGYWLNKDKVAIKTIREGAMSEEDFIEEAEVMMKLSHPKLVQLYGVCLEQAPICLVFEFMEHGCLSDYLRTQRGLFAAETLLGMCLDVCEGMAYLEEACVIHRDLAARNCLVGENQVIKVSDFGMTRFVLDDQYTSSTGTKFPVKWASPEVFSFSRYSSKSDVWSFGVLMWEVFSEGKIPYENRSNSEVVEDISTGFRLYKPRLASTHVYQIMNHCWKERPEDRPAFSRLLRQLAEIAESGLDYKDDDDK
Description: in vitro translation with 10 µM biotinylated pept-in, streptavidin pull-down, anti-DYKDDDDK Western blot.

In assay [6] the target is T2, ITK R29C, DYKDDDDK-tagged (produced by in vitro translation) (human). As to the kind of experiment: in vitro translation assay (FIG. 14).

B1: 04-015-N032 (peptide)
peptide: KVVVGAVGKGSKVVVGAVGK
modifications: FITC label (position not given)
With B1, the binding entry in assay [1] and in assay [2] was “binds” throughout.

B2: 22-018-N001 (peptide)
peptide: AKVLFFVKGSKVLFFVK
modifications: N-terminally biotinylated; C-terminally amidated
As to B2, the binding result in assay [3] and in assay [4] was “binds” each time.

B3: 22-006-N001 (peptide)
peptide: AKVCFFVKGSKVCFFVK
modifications: N-terminally biotinylated; C-terminally amidated
Consider B3, for which the binding result in assay [5] and in assay [6] was “binds” in each case.
